# Reference: US4717715A, “ARG^7 -ARG^8 -vasopressin antagonists” (SmithKline Beckman Corporation, priority 1986, dated 1988)
# Part of at least one peptide drawing is inferred or uncertain, most often the ends. Numbered stars: 1 amine (or outer) side, 2 acyl side, 3 side chain; on linkers, the order of the positions; unused ones are H or OH. Bridge positions count the residues as written; N and C are the ends. Square brackets hold non-standard residues; d marks the D form. Peptide text beside a SMILES is read from it. X1 = O=C(CC1(S[*:2])CCCCC1)[*:1]
# Key:
# [1] = target: vasopressin receptors (V2 -receptors); test: vasopressin stimulated adenylate cyclase activation in vitro, kidney medullary tissue (Ki); assay type: biochemical; settings: medullary tissue of hog or human kidneys
# [2] = target: vasopressin receptors (V2 -receptors); test: vasopressin binding activity in vitro, kidney medullary tissue (Kb); settings: medullary tissue of hog or human kidneys
# hydropenic rat = hydropenic rat screen (anti-ADH activity in vivo); settings: for ED300: dose required to lower urine osmolality to 300 m-Osmoles/kg, intraperitoneal, male rats
Structure (SMILES),Ki [1] [nM],Kb [2] [nM],ED300 (hydropenic rat) [mg/kg],times more active than Compound B in the in vivo rat (hydropenic rat; relative to Compound B) [times],times more active than Compound D in the in vivo rat (hydropenic rat; relative to Compound D) [times]
CCOc1ccc(C[C@H]2NC(=O)CC3(CCCCC3)SSC[C@@H](C(=O)N[C@@H](CCCNC(=N)N)C(=O)N[C@@H](CCCNC(=N)N)C(N)=O)NC(=O)[C@H](CC(N)=O)NC(=O)[C@H](C(C)C)NC(=O)[C@H](Cc3ccccc3)NC2=O)cc1 [Compound A] ([dY](Et)FVNCRR-NH2; linker N-5 via X1),2,2.7,0.0072,8,3
CCOc1ccc(C[C@H]2NC(=O)CC3(CCCCC3)SSC[C@@H](C(=O)N[C@H](CCCNC(=N)N)C(=O)N[C@@H](CCCNC(=N)N)C(N)=O)NC(=O)[C@H](CC(N)=O)NC(=O)[C@H](C(C)C)NC(=O)[C@H](Cc3ccccc3)NC2=O)cc1 [E] ([dY](Et)FVNC[dR]R-NH2; linker N-5 via X1),1.9,2.7,0.0146,,
CCOc1ccc(C[C@H]2NC(=O)CC3(CCCCC3)SSC[C@@H](C(=O)N[C@@H](CCCNC(=N)N)C(=O)N[C@H](CCCNC(=N)N)C(N)=O)NC(=O)[C@H](CC(N)=O)NC(=O)[C@H](C(C)C)NC(=O)[C@H](Cc3ccccc3)NC2=O)cc1 [F] ([dY](Et)FVNCR[dR]-NH2; linker N-5 via X1),1.7,5.4,,,
CCOc1ccc(C[C@H]2NC(=O)CC3(CCCCC3)SSC[C@@H](C(=O)N[C@H](CCCNC(=N)N)C(=O)N[C@H](CCCNC(=N)N)C(N)=O)NC(=O)[C@H](CC(N)=O)NC(=O)[C@H](C(C)C)NC(=O)[C@H](Cc3ccccc3)NC2=O)cc1 [G] ([dY](Et)FVNC[dR][dR]-NH2; linker N-5 via X1),0.88,5.2,0.0135,,
